# For part of these data: A negative result means that nothing was seen under these conditions. For part of these data: Construct, isoform or probe ends are uncertain for at least one entry. For part of these data: Protein sequences can lack the tags named with them. For part of these data: The direction of at least one scale is not stated here.
# Experiments:
# [1] = target: von Willebrand factor full length (Homo sapiens) (UniProt P04275); experiment: filter binding; conditions: purified native protein, protein details: Calbiochem 681300; for binding signal (ratio to no protein): 20 nM protein; for binding result: no binding, label: 5'-32P
# [2] = test system: von Willebrand factor A1 domain (Oryctolagus cuniculus); experiment: filter binding; conditions: 3'-idT, no binding, purified recombinant protein, protein details: 6-His, label: 5'-32P, single-stranded DNA, variant of ARC1027
# [3] = target: von Willebrand factor full length (Homo sapiens) (UniProt P04275); experiment: flow cytometry; conditions: botrocetin-induced vWF binding to platelets, purified native protein, protein details: Calbiochem 681300
# [4] = target: von Willebrand factor A1 domain (human) (Homo sapiens) (UniProt P04275); experiment: filter binding; conditions: 100 nM protein, purified recombinant protein
# [5] = test system: T1, von Willebrand factor A1 domain (rabbit) (Oryctolagus cuniculus); experiment: flow cytometry; conditions: 2'-F pyrimidines; botrocetin-induced rabbit A1 binding to platelets; purified recombinant protein; protein details: 6xHis
# T1 sequence (limits assumed): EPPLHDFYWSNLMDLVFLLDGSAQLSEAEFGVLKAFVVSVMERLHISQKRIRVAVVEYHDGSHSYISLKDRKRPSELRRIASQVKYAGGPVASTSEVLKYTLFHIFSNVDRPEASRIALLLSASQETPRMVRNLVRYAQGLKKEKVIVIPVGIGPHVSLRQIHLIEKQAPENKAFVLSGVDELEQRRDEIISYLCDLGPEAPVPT
# [6] = ribo purines, deoxy pyrimidines
sequence,measurement,setting,value
CTACCTACGATCTGACTAGCCCCCACTTATCGTGTACCTTATGATATGTCGAATACTCTTGCTTACTCTCATGTAGTTCC [AMX236.F7],binding signal (ratio to no protein),[1]; single-stranded DNA,1.18
GGCGTGCAGTGCCTATTCTAGGCCGTGCGGCCGTCACGCC [ARC1030],binding result,"[1]; internal PEG spacer replacing TGCCT between CGTGCGG and CCGTC, 3'-idT, single-stranded DNA, variant of ARC1027",no binding
same,binding result,[2]; internal PEG spacer replacing TGCCT between CGTGCGG and CCGTC,no binding
CTACCTACGATCTGACTAGCCAGTTCTGGGAAAAATCATTTTTTATTTCGATCGTATTTGCTTACTCTCATGTAGTTCC [AMX238.D9],binding signal (ratio to no protein),[1]; single-stranded DNA,1.22
GGACCACCCUCGCAAGCAUUGAGAAAUGACUUGUGCCGCUGGUCC [rRfY minimer SEQ 172],IC50,[3]; 2'-F pyrimidines,4.3 nM
CTACCTACGATCTGACTAGCTTGTCGCACTTTTGGTTGGTCTGGTTGGTTTTAAGTGCGCTTACTCTCATGTAGTTCC [AMX238.H9],binding signal (ratio to no protein),[1]; single-stranded DNA,1.11
CTACCTACGATCTGACTAGCGAAACACTAGGTTGGTTAGGATTGGTGTGTTTCCGCTTTGCTTACTCTCATGTAGTTCC [AMX199.H7],binding signal (ratio to no protein),[4]; single-stranded DNA,1.32
CTACCTACGATCTGACTAGCGGAACACTAGGTTGGTTAGGATTGGTGTGTTCCCGTTTTGCTTACTCTCATGTAGTTCC [AMX199.A10],binding signal (ratio to no protein),[4]; single-stranded DNA,1.25
CTACCTACGATCTGACTAGCGGAATGAGAGTGCTGATGGATTGCTCAGGTCTACTGGCTGCTTACTCTCATGTAGTTCC [AMX200.D1],binding signal (ratio to no protein),[4]; single-stranded DNA,1.26
CTACCTACGATCTGACTAGCCAGTTCTGGGAAAAATTATTTTTTTATTTCGATCGTATTTGCTTACTCTCATGTAGTTCC [AMX236.C9],binding signal (ratio to no protein),[1]; single-stranded DNA,1.24
GGCGTGCAGTGCCTAGGCCGTGCGGCCGTCACGCC [ARC1031],binding result,"[1]; two internal PEG spacers, 3'-idT, single-stranded DNA, variant of ARC1027",no binding
same,binding result,[2]; two internal PEG spacers,no binding
CTACCTACGATCTGACTAGCTCCAGTGTTTTATCCAATAACCGTGCGGTGCCTCCGTGATGCTTACTCTCATGTAGTTCC [AMX236.F8],binding signal (ratio to no protein),[1]; single-stranded DNA,1.14
CTACCTACGATCTGACTAGCTCAAAGTATTACTTATTGGCAATAAGTCGTTTACTCTATAGCTTACTCTCATGTAGTTCC [AMX238.A3],binding signal (ratio to no protein),[1]; single-stranded DNA,1.36
CTACCTACGATCTGACTAGCGGAATGAGAATGCTGGTGGATTGCTCAGGTCTGCTGGCTGCTTACTCTCATGTAGTTCC [AMX237.E10],binding signal (ratio to no protein),[1]; single-stranded DNA,1.12
GGACCACCCUCGCAAGCAUUUUAAGAAUGACUUGUGCCGCUGGUCC [rRfY minimer SEQ 169],IC50,[3]; 2'-F pyrimidines,6.9 nM
GGAGCGCACTCAGCCACCACGGGGACGGGTAGGGCGGGCGAGGTGGTGGCATTAGCGTTTCGACCTCTCTGCTAGC [AMX203.A6],binding signal (ratio to no protein),[4]; [6],1.16
CTACCTACGATCTGACTAGCGGAATGAGTATGCTGGTGGATTGCTCAGGTCTGCTGGCTGCTTACTCTCATGTAGTTCC [AMX238.F6],binding signal (ratio to no protein),[1]; single-stranded DNA,1.18
GGCGTGCAGTGCCTTCGGCCGTGCGGTGCCTCCGTCACGCC [ARC1241],binding result,"[1]; 2'-OMe G25 G26 G34, 3'-idT, variant of ARC1172",no binding
CTACCTACGATCTGACTAGCTCCAGTGTTTTATCCAATAACCGTGCGGGGCCTCCGTGATGCTTACTCTCATGTAGTTCC [AMX238.G6],binding signal (ratio to no protein),[1]; single-stranded DNA,1.25
GGACCACCCUCGCAACGAGAGUUGUGCCGCUGGUCC [rRfY minimer SEQ 174],IC50,[5],6.8 nM
same,IC50,[3]; 2'-F pyrimidines,6.6 nM
GGCGTGCAGTGCCTTCGGCCGTGCGGTGCCTCCGTCACGCC [ARC1242],binding result,"[1]; 2'-OMe C24 C32 C33, 3'-idT, variant of ARC1172",no binding
GGCGTGCAGTGCCTTCGGCCGTGCGGTGCCTCCGTCACGCC [ARC1243],binding result,"[1]; 2'-OMe at 24-26 and 32-34, 3'-idT, variant of ARC1172",no binding
GGAGCGCACTCAGCCACACGACATTGGCGGGTTGTAATTACCACGCATGGCTG [rRdY minimer SEQ 186],IC50,[3]; [6],1.3 nM
CTACCTACGATCTGACTAGCAAGGGGATTGGCTCCGGGTCTGGCGTGCTCGGCACTTCCGGCTTACTCTCATGTAGTTCC [AMX202.A8],binding signal (ratio to no protein),[4]; single-stranded DNA,1.27
CTACCTACGATCTGACTAGCTCCAGTGTTTTATCTAATAACCGTGCGGTGCCTCCGTGATGCTTACTCTCATGTAGTTCC [AMX237.F6],binding signal (ratio to no protein),[1]; single-stranded DNA,1.2
GGAGCGCACTCAGCCACTCAAGGGGGTCGCGTGGGGACGAAGGGTTGCAGTGTGTCGTTTCGACCTCTCTGCTAGC [AMX205.A7],binding signal (ratio to no protein),[4]; [6],1.24
CTACCTACGATCTGACTAGCTTGGTAGCGACCCTGTGGAGCTGCGGTTTGGTCGACGTCAGCTTACTCTCATGTAGTTCC [AMX236.E6],binding signal (ratio to no protein),[1]; single-stranded DNA,1.31
GGAGCGCACUCAGCCACCCUCGCAAGCAUUUUAAGAAUGACUUGUGCCGCUGGCUG [rRfY minimer SEQ 165],IC50,[3]; 2'-F pyrimidines,6.4 nM
CTACCTACGATCTGACTAGCTCCAGTGTTTTATTCAATAACCGTGCGGTGCCTCCGTGATGCTTACTCTCATGTAGTTCC [AMX237.C7],binding signal (ratio to no protein),[1]; single-stranded DNA,1.15
CTACCTACGATCTGACTAGCGGAATGAGAATGCAGGTGGATTGCTCAGGTCTGCTGGCTGCTTACTCTCATGTAGTTCC [AMX237.B12],binding signal (ratio to no protein),[1]; single-stranded DNA,1.13
GCGUGCAGUGCCUUCGGCCGTGCGGTGCCUCCGUCACGC [ARC1525],binding result,"[1]; 2'-OMe/deoxy composite with mT, 3'-idT, negative control, variant of ARC1368",no binding
GGAGCGCACTCAGCCACAACTGGTTGTCGGTGATGGCATTAACGCGGACCAGGCATGTTTCGACCTCTCTGCTAGC [AMX205.G9],binding signal (ratio to no protein),[4]; [6],1.3
CTACCTACGATCTGACTAGCGAAACACTAGGTTGGTTAGGATTGGTGTGTTCCCGCTTTGCTTACTCTCATGTAGTTCC [AMX199.G1],binding signal (ratio to no protein),[4]; single-stranded DNA,1.19
CTACCTACGATCTGACTAGCAAGGGGATTGGCTCCGGGTCTGGCGTGCTTGGCATCTTTGGCTTACTCTCATGTAGTTCC [AMX238.F7],binding signal (ratio to no protein),[1]; single-stranded DNA,1.2
CTACCTACGATCTGACTAGCCAGTTCTGGGAAAAATTATTTTTTTATTTCGATCGTATATGCTTACTCTCATGTAGTTCC [AMX238.A12],binding signal (ratio to no protein),[1]; single-stranded DNA,1.23
CTACCTACGATCTGACTAGCTTGGTAGCGACTTTGTGGAGCTGCGGTTTGGTCGACATCAGCTTACTCTCATGTAGTTCC [AMX237.H8],binding signal (ratio to no protein),[1]; single-stranded DNA,1.21
GGAGCGCACTCAGCCACGGGGTGGGTAGACGGCGGGTATGTGGCT [rRdY minimer SEQ 177],IC50,[3]; [6],3 nM
CTACCTACGATCTGACTAGCTCCAGTGTTTTATATAATAACCGTGCGGTGCCTCCGTGATGCTTACTCTCATGTAGTTCC [AMX237.D11],binding signal (ratio to no protein),[1]; single-stranded DNA,1.16
CTACCTACGATCTGACTAGCGAAACACTAGGTTGGTTAGGATTGGTGTGTTCCCGCTCTGCTTACTCTCATGTAGTTCC [AMX199.F6],binding signal (ratio to no protein),[4]; single-stranded DNA,1.37
CTACCTACGATCTGACTAGCGAAACACTAGGTTGGTTAGGATTGGTGTGTTTCCGTTCTGCTTACTCTCATGTAGTTCC [AMX199.F10],binding signal (ratio to no protein),[4]; single-stranded DNA,1.17
